Data source: PubChem BioAssay AID1259298 (Sanger Institute, 2017)

- Test: 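Kinases whose loss strengthens killing by BYL719, cetuximab or trametinib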 (primary screen)
- Cell system: HT55 human colorectal cancer cell line
- Knock-down reagent: siRNA pool against human genes
- Treatment: anchor drug BYL719 1 µM, cetuximab 5 µg/ml or trametinib 10 nM, or DMSO vehicle alone
- Read-out: 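Replicate-averaged viability versus wells of non-targeting pool; knock-down-only robust z-score; per-drug synergy score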
- Direction: robust z-score, knock-down alone: higher = more cells remaining; low means essential gene; viability vs control pool, no drug: higher = more viable cells; synergy score with BYL719 and synergy score with cetuximab and synergy score with trametinib: higher = stronger synthetic lethality with the drug
- Rule for the call: 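a gene counts as essential if its knock-down-alone robust z-score falls under -3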
- Calls: active = essential (knock-down alone); inactive = no change alone
In all, the deposit lists 794 reagents; shown is a random part of them. Of all reagents, 20 (2.5%) were called active. 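Calls rest only on the knock-down-alone score; drug synergy scores played no part in them.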 A number with no mark means an inactive call. Viability is capped at 1. Not given: the amount of reagent, the time to read-out.

| gene symbol | robust z-score, knock-down alone | viability vs control pool, no drug (fraction) | synergy score with BYL719 | synergy score with cetuximab | synergy score with trametinib |
| --- | --- | --- | --- | --- | --- |
| ALPK1 | 0.58 | 1 | -0.187 | -0.119 | -0.0776 |
| IKBKE | 0.193 | 0.97 | -0.208 | -0.0495 | -0.0211 |
| MAPK4 | -1.42 | 0.844 | -0.291 | -0.248 | -0.0742 |
| WT1 | 0.58 | 1 | -0.193 | -0.211 | -0.194 |
| DGUOK | -3.58 (active) | 0.674 | -0.222 | -0.103 | -0.0999 |
| BCR | 0.139 | 0.966 | -0.192 | -0.175 | 0.084 |
| CDKL5 | 0.58 | 1 | -0.272 | -0.141 | -0.00902 |
| PTEN | 0.58 | 1 | -0.136 | -0.0652 | 0.000119 |
| NRBP2 | -2.09 | 0.791 | -0.0718 | -0.132 | 0.000471 |
| PGK2 | 0.58 | 1 | -0.26 | -0.0771 | 0.0511 |
| SRPK1 | 0.58 | 1 | -0.1 | -0.0249 | -0.0336 |
| PRKAG2 | 0.58 | 1 | -0.272 | -0.211 | -0.0313 |
| CUL1 | 0.425 | 0.988 | -0.119 | -0.147 | 0.0172 |

Reprinted from the entries so far (4 entries):
| gene symbol | robust z-score, knock-down alone | viability vs control pool, no drug (fraction) | synergy score with BYL719 | synergy score with cetuximab | synergy score with trametinib |
| --- | --- | --- | --- | --- | --- |
| PGK2 | 0.58 | 1 | -0.26 | -0.0771 | 0.0511 |
| SRPK1 | 0.58 | 1 | -0.1 | -0.0249 | -0.0336 |
| PRKAG2 | 0.58 | 1 | -0.272 | -0.211 | -0.0313 |
| CUL1 | 0.425 | 0.988 | -0.119 | -0.147 | 0.0172 |

Additional entries follow:
| gene symbol | robust z-score, knock-down alone | viability vs control pool, no drug (fraction) | synergy score with BYL719 | synergy score with cetuximab | synergy score with trametinib |
| --- | --- | --- | --- | --- | --- |
| PKN2 | 0.224 | 0.972 | -0.107 | -0.176 | 0.0254 |
| STK38L | -0.476 | 0.917 | -0.095 | -0.106 | 0.108 |
| CDKN2D | -1.22 | 0.859 | -0.207 | -0.102 | 0.104 |
| CAMK2A | 0.58 | 1 | -0.19 | -0.142 | 0.0244 |
| CDK17 | 0.58 | 1 | -0.267 | -0.211 | -0.0346 |
| UHMK1 | 0.58 | 1 | -0.272 | 0.00409 | 0.0321 |
| MAP3K14 | 0.357 | 0.983 | -0.0977 | -0.188 | 0.00693 |
| SMAD2 | -1.07 | 0.871 | -0.151 | -0.236 | -0.144 |
| PRKD3 | 0.119 | 0.964 | -0.0695 | -0.0303 | 0.133 |
| KMT2B | 0.58 | 1 | -0.161 | 0.0389 | 0.0657 |
| PIP4K2A | 0.548 | 0.998 | -0.262 | -0.152 | -0.00971 |
| MAGI2 | 0.58 | 1 | -0.0934 | -0.138 | -0.0191 |
| DGKQ | -0.225 | 0.937 | -0.0133 | 0.00854 | -0.0198 |
| NF1 | 0.58 | 1 | -0.216 | -0.211 | -0.0561 |
| ITPKB | 0.58 | 1 | -0.231 | -0.043 | -0.0697 |
| RPS6KA4 | -0.112 | 0.946 | -0.134 | -0.0636 | 0.00977 |
| OXSR1 | 0.58 | 1 | -0.159 | -0.165 | -0.157 |
| MPP2 | 0.58 | 1 | 0.0324 | 0.0366 | 0.147 |
| SIK1 | 0.58 | 1 | -0.106 | -0.0842 | 0.0496 |
| RIPK4 | 0.58 | 1 | -0.139 | -0.18 | -0.083 |
| AK3 | 0.58 | 1 | -0.114 | -0.0125 | -0.0788 |
